Reference: US20220325239A1, “CELL CULTURE” (AGENCY FOR SCIENCE, TECHNOLOGY AND RESEARCH, priority 2019, published 2022)
For at least one compound, name, drawing or mass did not settle the structure.

Tests used:
[1] = tested on: FINE cells; test: Withdrawal or replacement of AZD5438 / Dasatinib in FINE culture; type: cell-based, human; conditions: H9 line, 2 passages
Description: FIG. 4A is a diagram showing brightfield and immunofluorescence staining of KLF4, TFE3 and KLF17 in FINE culture after withdrawal of AZD, Dasa or both for 3 passages. Scale bar=50 μm.
FIG. 4B is a diagram showing quantification of fraction of nuclei positive for naïve-associated transcription factors in hESCs cultured in FINE after withdrawal of AZD, Dasa or both for 3 passages. Mean±SD of three independent experiments.
FIG. 4C is a diagram showing expression of blastocyst-associated transcripts in hESCs cultured in FINE after withdrawal of AZD, Dasa or both for 2 passages. Mean±SD of three independent qPCR experiments.
FIG. 4D and FIG. 4E are diagrams showing expression of blastocyst-associated transcripts in hESCs cultured in FINE after (D) replacement of Dasa with other Src and Bcr-Abl inhibitors or (E) replacement of AZD with Dinaciclib (in H9 line) for 2 passages. Mean±SD of three independent qPCR experiments.
Therefore, we wanted to test if both are also important for the maintenance of naivety in FINE.

[2] = tested on: LTR7Y-zsGreen reporter cells; test: High-throughput small molecule screen for feeder-free maintenance of naïve hESCs (LTR7Y-zsGreen fluorescence); type: cell-based, human; conditions: 3iL without feeders
Experimental: 3,000 cells cultured in mTeSR1 (STEMCELL Technologies) or 3iL were seeded per well into 384-well plates (Greiner) coated with 30× Matrigel (Corning) or 30× growth factor reduced Matrigel (Corning) in 45 µl of medium. 4 hours after seeding, cells were treated with anti-cancer and anti-kinase libraries (Selleckchem; kinase inhibitor screening library—customised collection of 273 kinase inhibitors, anti-cancer compound library—customized collection of 349 bioactive compounds). Small molecules were used at 3 different concentrations: 100 nM, 1 μM and 10 μM for each condition. 48 hours after the treatment, culture media was renewed concomitant with a second round of treatment with the compounds. […] Images were processed and fluorescence signal was quantified using Columbus Image Data Storage and Analysis System (PerkinElmer). […] Z-score for zsGreen fluorescence was calculated using formula: z=(X−μ)/s.d. where μ—mean, s.d.—standard deviation of whole population, X−integrated intensity of zsGreen divided by total number of cells. […]
We first ensured the quality of the screen by certifying the absence of intra-plate layout biases (FIG. 8I), proper inter-plate alignment (FIG. 8J) and good correlation between replicates (FIG. 8K). Z-scores were then calculated, and compounds that reproducibly scored above noise (z>2 in at least 2 replicates) were regarded as hits (FIG. 1B, S1L). […]

| SMILES | sustaining FINE cells when replacing AZD5438 [1] | outcome of the screen (hit) [2] |
| --- | --- | --- |
| CCc1cnn2c(NCc3ccc[n+]([O-])c3)cc(N3CCCC[C@H]3CCO)nc12 [Dinaciclib] | did not sustain | – |
| CN1CCN(CCOc2cc(OC3CCOCC3)c3c(Nc4c(Cl)ccc5c4OCO5)ncnc3c2)CC1 [Saracatinib] | – | identified novel regulators of naïve pluripotency |
